# Counter-ions that a name gives are not always drawn. This is one part of the list. This data set is noisy: repeats of one test often differ as much as different tests do.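 The cells were human embryonic kidney cells carrying a Renilla luciferase gene, driven by the HSV-TK promoter, on a plasmid put in briefly by transfection. This is the first-round screen of about ten thousand compounds, looking for ones that raise reporter output.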
# System: HEK 293FT
# Assay: log relative Renilla luciferase luminescence (reporter expression vs reference, reference not stated) (log (base not stated)); higher = higher recombinant reporter expression
# Settings: 10 µM; time after transfection 48 h
row,Compound,log
1,N#Cc1ccc(N2CCN(C(=O)COc3ccc4[nH]cc(CCN)c4c3)CC2)cc1 [Donitriptan hydrochloride],0.0738
2,"CC12NC(Cc3ccccc31)c1ccccc12 (single isomer, unassigned; (+)) [(+)-MK 801 maleate]",-0.00216
3,CC(=O)N(C)c1cccc(-c2ccnc3c(C(=O)c4cccs4)cnn23)c1 [Indiplon],-0.089
4,CC(C)(Cc1c[nH]c2ccc(Cl)cc12)NCCOc1ccccc1OCC1CC1,0.027
5,O=C1Nc2cc(Cl)c(Cl)cc2N2CCNCC12 (centres undefined),-0.0637
6,C[C@@H]1O[C@@H](O[C@H]2C[C@@H](O)[C@]3(CO)[C@H]4[C@H](O)C[C@]5(C)[C@@H](C6=CC(=O)OC6)CC[C@]5(O)[C@@H]4CC[C@]3(O)C2)[C@H](O)[C@H](O)[C@H]1O [Ouabain],-1.61
7,NC(N)=Nc1ccc2[nH]c3c(c2c1)C[C@@]1(O)[C@H]2Cc4ccc(O)c5c4[C@@]1(CCN2CC1CC1)[C@H]3O5 [GNTI dihydrochloride],-0.0464
8,COc1ccc2c(c1)c(CCN1CCOCC1)c(C)n2C(=O)c1cccc(Cl)c1Cl,-0.0382
9,"CN(C(=O)Cc1ccc(Cl)c(Cl)c1)[C@H](CN1CCCC1)c1ccccc1 [ICI-199,441 hydrochloride]",0.119
10,OC(Cc1ccncc1)C(Cl)(Cl)Cl (centres undefined),0.0885
11,O=C(CCCN1CCC2(CC1)C(=O)N(Cc1cccc(F)c1)CN2c1ccccc1)c1ccc(F)cc1 [3'-Fluorobenzylspiperone maleate],0.0428
12,CC(C)(C)OC(=O)c1ncn2c1[C@@H]1CCCN1C(=O)c1c(Br)cccc1-2 [Bretazenil],0.125
13,COc1cc2c(cc1OC)C1CC(=O)C(CC(C)C)CN1CC2 (centres undefined) [Tetrabenazine],-0.0824
14,O=C1CN=C(c2cccc(Br)c2)c2oc3ccccc3c2N1,-0.0323
15,CN(C(=O)Cc1ccccc1)C(CN1CCCC1)c1ccccc1 (centres undefined) [N-MPPP Hydrochloride],0.0845
16,CCCN1CCC[C@@H]2Cc3n[nH]cc3C[C@H]21 [(-)-Quinpirole hydrochloride],-0.179
17,c1cc(Cc2cnc[nH]2)ccn1 [Immethridine dihydrobromide],-0.244
18,Cc1[nH]c2ccc(O)cc2c1CCN [2-Methyl-5-hydroxytryptamine hydrochloride],-0.00649
19,O=C(O)CCC(CP(=O)(O)O)C(=O)O (centres undefined) [PMPA (NAALADase inhibitor)],-0.0265
20,CN1[C@@H]2CC[C@H]1CC(OC(=O)N1Cc3ccccc3NC1=O)C2 (some centres undefined) [DAU 5884 hydrochloride],-0.0488

# Some of the entries so far, with tabs:
row	Compound	log
3	CC(=O)N(C)c1cccc(-c2ccnc3c(C(=O)c4cccs4)cnn23)c1 [Indiplon]	-0.089
7	NC(N)=Nc1ccc2[nH]c3c(c2c1)C[C@@]1(O)[C@H]2Cc4ccc(O)c5c4[C@@]1(CCN2CC1CC1)[C@H]3O5 [GNTI dihydrochloride]	-0.0464

# The listing continues:

row,Compound,log
1,COC(=O)[C@@H](N)CCCNC(=N)N[N+](=O)[O-] [L-NAME hydrochloride],0.0738
2,O=C1C2CCN(CC2)C1(CO)CO,0.185
3,CN1C(=O)CCS(=O)(=O)C1c1ccc(Cl)cc1 (centres undefined) [Chlormezanone],-0.0609
4,c1ccc(CCCCN2CCC(c3ccccc3)CC2)cc1 [4-PPBP maleate],0.00638
5,O=c1[nH]oc2c1CCNC2 [THIP hydrochloride],0.0505
6,C[C@H]1CCC/C=C/[C@@H]2C[C@H](O)C[C@H]2[C@H](O)/C=C/C(=O)O1 [Brefeldin A],-0.0659
7,c1ccc2c(c1)OCC(C1=NCCN1)O2 (centres undefined) [Idazoxan hydrochloride],0.0729
8,CN[C@@H]1C[C@@H](c2ccc(Cl)c(Cl)c2)c2ccccc21 [Indatraline hydrochloride],0.153
9,Cc1ncc(CN2CC=C(c3ccccc3)CC2)c(N)n1,-0.399
10,CC(C)[C@@]1(NC(=O)[C@@H]2C[C@@H]3c4cccc5[nH]cc(c45)C[C@H]3N(C)C2)O[C@@]2(O)[C@@H]3CCCN3C(=O)[C@H](Cc3ccccc3)N2C1=O [Dihydroergocristine mesylate],0.195
11,CCCN(C/C=C/I)C1CCc2ccc(O)cc2C1 (centres undefined) [7-Hydroxy-PIPAT maleate],-0.0585
12,Cc1nc(N)sc1CCN [Amthamine dihydrobromide],0.0756
13,NC(C(=O)O)c1nn[nH]n1 (racemic) [(RS)-(Tetrazol-5-yl)glycine],0.00213
14,Cc1onc(O)c1C[C@H](N)C(=O)O,-0.00324
15,"Cc1cc(C)cc(C(=O)OC2C[C@H]3CC[C@@H](C2)N3C)c1 (some centres undefined) [Tropanyl-3,5-dimethylbenzoate]",-0.0488
16,"c1ccc(CC(c2ccccc2)N2CCCCC2)cc1 (racemic) [(±)-1-(1,2-Diphenylethyl)piperidine maleate]",0.13
17,NCCc1c[nH]c2ccc(C(N)=O)cc12 [5-Carboxamidotryptamine maleate],0.142
18,CC(C)n1cnc2c(C(=O)N[C@H]3CN4CCC3CC4)cc(Cl)cc21,0.103
19,COc1ccc(CNC(=O)/C=C/c2ccc3[nH]cc(CCN(C)C)c3c2)cc1,-0.0709

# — the supplement of paper PMC7024190
